In all, about 360,000 compounds went through this assay and about 780 (0.22%) were called active. Inconclusive results, whose numbers are uncertain, are shown with a selection of clear calls. Rule as the data show it: active = inhibition above about 35% (passing the limit was not always enough); inconclusive = no clear call, values can overlap the other calls. Where a SMILES comes first, the peptide text is derived from it. The star is where a group is joined. Boc = CC(C)(C)OC(=O)*
System: Botulinum neurotoxin type F light chain protease (Clostridium botulinum)
Experiment: BoNT/F light chain protease inhibitors, primary screen, biochemical, flow cytometry, MLPCN library (AID 588497); also: plate controls were buffer without enzyme for full effect and enzyme alone for no effect
Conditions: Multiplex microsphere protease cleavage assay, at 10 µM, active compounds read high

Compound | inhibition
CCOc1cc(C(=O)Nc2ncccn2)cc(OCC)c1OCC | inconclusive: -3.1%
CCOc1ccc(S(=O)(=O)Nc2ccn(C)n2)cc1 | inconclusive: -11.4%
COC(=O)Cc1c(C(=O)OC)nnn1-c1ccc(OC(F)(F)F)cc1 | inactive: -8.8%
N/C(=N\OC(=O)CCCc1ccccc1)c1ccccn1 | inactive: 1.8%
Fc1ccccc1-c1ccc(/C=N/Nc2nc3ccccc3[nH]2)o1 | inactive: -15.2%
CCOC(=O)n1cnc2nc(N)nc(SC)c21 | inactive: 0.4%
Nc1ccc(-n2cnc3cc([N+](=O)[O-])ccc32)cc1 | inconclusive: 16.1%
O=C1NCCN1CCNS(=O)(=O)c1ccc(F)c(Cl)c1 | inconclusive: 1%
Cc1ccccc1OCc1nnc(SCC(=O)O)n1-c1ccccc1 | inconclusive: -19.3%
CCc1nc(NC2CCCCC2)c(C#N)c2c1COC(C)(C)C2 | inactive: -0.6%
COC(=O)[C@H](Cc1c[nH]c2ccccc12)NC(=O)Nc1ccccc1OC | inconclusive: 166%
COc1ccc(C2=NN(C(=O)CCC(=O)O)C(c3ccccc3F)C2)cc1 (stereo unspecified) | inconclusive: 4.7%
CCOC(=O)N/N=C1\CCS(=O)(=O)c2ccc(Cl)cc21 | inconclusive: -4.8%
C=CCc1cccc2cc(C(=O)NC)c(=O)oc12 | inconclusive: -3.9%
COc1cccc(-c2nc(COc3ccc(Cl)cc3Cl)no2)c1 | inactive: -0.2%
COc1ccc(/C=C(\C#N)C(=O)OCC(=O)N(C)C2CCS(=O)(=O)C2)cc1 (stereo unspecified) | inconclusive: -11.3%
CCN(CC)S(=O)(=O)c1cccc(C(=O)NCC2(N3CCOCC3)CCCCC2)c1 | inactive: 21.8%
CCCNC(=O)OC1CC2CC1[C@H]1CCCCN1C2=O (stereo partly specified) | inactive: -2.3%
COc1ccc(C(=O)N[C@H](C(=O)OCCCOC(=O)[C@@H](NC(=O)c2ccc(OC)cc2)C(C)C)C(C)C)cc1 | inactive: -5.7%
CCOC(=O)Nc1ccc(S(=O)(=O)Nc2nccc(C)n2)cc1 | inconclusive: -2.9%
O=c1c2ccccc2nc(CSc2ncnc3nc[nH]c23)n1-c1ccc(Cl)c(Cl)c1 | inactive: -12.2%
C[n+]1ccc(C(=O)NCc2ccccc2)cc1 | inconclusive: -23.9%
COc1ccc(C2(CNC(=O)c3ccccc3)CCOCC2)cc1 | inactive: 0.4%

Compound | inhibition
COc1ccc(Br)cc1CN1CCN(c2ncccn2)CC1 | inconclusive: -30.6%
COC(=O)c1cc(CSC(=N)N)ccc1OCCC(C)C | inconclusive: 13.4%
O=C(NC(=S)Nc1ccccc1N1CCCC1)c1ccccc1[N+](=O)[O-] | inactive: -6.4%
COc1ccc(C(=O)Nc2ccc3[nH]ccc3c2)cc1OC | inconclusive: 26.4%
O=C1CCC(=O)N1c1ccc(S(=O)(=O)Nc2cccc(Br)c2)cc1 | inactive: -10.3%
CCOC(=O)C1CCN(C(=O)c2ccccc2N(C)S(C)(=O)=O)CC1 | inconclusive: -8.5%
c1ccc(Cc2c[nH]c3ccccc23)cc1 | inconclusive: -36.9%
CCOC(=O)c1ccc(N=C(CC)c2c(O)n(C)c(=O)n(C)c2=O)cc1 | inconclusive: -10.6%
N#Cc1c2n(c3c(N)ncnc13)CCCCC2 | inconclusive: 11.9%
COc1cc(C#N)ccc1OCC(=O)N1CCc2ccccc2C1 | inactive: -0.1%
Nc1ncnc2c1ncn2[C@@H]1O[C@H](C(=O)N2CCN(c3ccc(Cl)cn3)CC2)[C@@H](O)[C@H]1O | inactive: 6.3%
O=C(Nc1cccc(Cl)c1N1CCOCC1)c1cccnc1Cl | inconclusive: -6.3%
CC1(C)CC(NC(=O)c2ccc(Cl)cc2)CC(C)(C)N1 | inconclusive: 13.2%
CCCc1c(C(=O)N/N=C/c2ccc3c(c2)OCO3)nnn1-c1nonc1N | inactive: -12.2%
O=C(Nc1nc2ccsc2c(=O)s1)c1ccc(F)cc1 | inconclusive: -45.1%
NS(=O)(=O)c1cnccc1Nc1cccc(Br)c1 | inconclusive: 39.6%
COc1ccc(-c2c(-c3cc(OC)cc(OC)c3)n(C)c3ccc(-c4ccc(S(N)(=O)=O)cc4)cc23)cc1 | inactive: 1.7%
CC(=O)/C(N=Nc1nc2c([nH]1)c(=O)n(C)c(=O)n2C)=C(\C)O | inconclusive: 17.4%
COc1ccc(-n2c(SCC(N)=O)nnc2-c2ccccc2F)cc1 | inactive: -1.5%
CCOCCn1c(N2CCCC2)nc2c1c(=O)n(C)c(=O)n2C | inconclusive: -23.9%
Cc1ccc2nc(CCc3ccc(N)cc3)[nH]c2c1 | inconclusive: -23.5%
NC(=O)c1ccc(-c2csnn2)cc1 | inconclusive: -19.9%
COc1ccc(CN(CC(O)COc2cccc3[nH]cc(C)c23)C(C)(C)C)cc1 (stereo unspecified) | inconclusive: -20.9%

A different layout for 5 compounds above:
Compound,inhibition
COC(=O)[C@H](Cc1c[nH]c2ccccc12)NC(=O)Nc1ccccc1OC,inconclusive: 166%
CCOC(=O)N/N=C1\CCS(=O)(=O)c2ccc(Cl)cc21,inconclusive: -4.8%
COc1ccc(C(=O)N[C@H](C(=O)OCCCOC(=O)[C@@H](NC(=O)c2ccc(OC)cc2)C(C)C)C(C)C)cc1,inactive: -5.7%
COc1cc(C#N)ccc1OCC(=O)N1CCc2ccccc2C1,inactive: -0.1%
COc1ccc(-n2c(SCC(N)=O)nnc2-c2ccccc2F)cc1,inactive: -1.5%

Following part

Compound | inhibition
NC(=S)Nc1ccc(C(F)(F)F)cc1Cl | inconclusive: -20.3%
CS(=O)(=O)N(Cc1ccccc1)c1ccc(C(=O)Nc2ccccc2C(=O)O)cc1 | inconclusive: -9.2%
CC1C(=O)N(Cc2cn(Cc3ccco3)nn2)CCS(=O)(=O)N1Cc1ccc(-c2cccc(N(C)C)c2)cc1 (stereo unspecified) | inactive: -1.7%
Cn1c(=O)cc(C(=O)N/N=C/c2ccc(F)cc2)[nH]c1=O | inconclusive: -30.9%
CC(O)CN1C(=O)C(CC(=O)Nc2ccc(Cl)cc2)SC1=Nc1ccccc1 (stereo unspecified) | inconclusive: -1.7%
CC1(C(=O)NCCC#N)CCN1C(=O)c1ccccc1CCc1ccccc1 (stereo unspecified) | inactive: 5.3%
O=C(NC(=S)NC12CC3CC(CC(C3)C1)C2)c1ccc(F)cc1 | inactive: -8.1%
N#C/C(=C\c1ccccc1)C(=O)Nc1cccnc1 | inconclusive: -12.2%
Cc1nn(CC(=O)N/N=C/c2cccs2)c(C)c1[N+](=O)[O-] | inconclusive: -15.9%
CCOC(=O)C1CCCCN1Cc1cc(OC)ccc1OC (stereo unspecified) | inactive: 2%
Cc1ccc(S(=O)(=O)Nc2ccc(F)cc2)cc1C(=O)N1CCOCC1 | inactive: 0.6%
CCSc1nnc(-c2sc3nnc(-c4ccccc4)c(-c4ccccc4)c3c2N)o1 | active: 51.5%
c1ccc(OCCCCN2CCCCC2)cc1 | inconclusive: -38.1%
CC(=O)c1sc(NCc2ccc(C)cc2)nc1C | inactive: -0.4%
CC(C)Oc1ccc(C2CC(=O)NC2=O)cc1 (stereo unspecified) | inconclusive: -5.2%
CCOC(=O)N1CCN(C(=O)c2ccc3ccccc3c2)CC1 | inconclusive: -8.9%
Cc1ccc(-n2nc(C)c(NC(=O)COC(=O)c3ccccc3NCCO)c2C)cc1 | inconclusive: -4.5%
Cc1ccc(OCC(=O)O)c(O)c1 | inactive: 7.5%
COc1cc2c(cc1OC)C(C)N(C(=O)C1COc3ccccc3O1)CC2 (stereo unspecified) | inconclusive: -24.7%
CCn1cc(C(=O)NCc2ccc3c(c2)OCO3)c2cc(OC)c(OC)cc2c1=O | inconclusive: -4.7%
CC(C)C(NC(=O)OC(C)(C)C)C(=O)N1CCCC1C(=O)NC(Cc1ccccc1)C(N)=O (stereo not drawn) (Boc-Val-Pro-Phe-NH2; configuration not given here) | inconclusive: -6.7%
CC(=O)NNS(=O)(=O)c1ccc(-c2cc(C(F)(F)F)n(C)n2)s1 | inconclusive: -24.7%
CCCOC1CCCN(C(=O)c2cc(COc3c(F)cccc3F)on2)C1 (stereo unspecified) | inactive: -0.1%

Compound | inhibition
O=C(N/N=C/c1cc2c3c(c1O)CCCN3CCC2)c1ccccc1O | inactive: -29%
COc1ccc(C)cc1S(=O)(=O)N1CCCC(N2CCOCC2)C1 (stereo unspecified) | inconclusive: 9.9%
O=C(NCCCN1CCCC1=O)c1cccc(C(F)(F)F)c1 | inactive: 2.5%
CC1(C)CC(=O)C=C(NCCN2CCN(C(=S)Nc3ccccc3)CC2)C1 | inconclusive: -24.2%
O=C(Cc1cccs1)NCc1cccc(C(F)(F)F)c1 | inconclusive: 8.1%
O=C(O)CCc1ccc(-c2ccccc2)n1CC(=O)Nc1cccc(C(F)(F)F)c1 | inconclusive: 42.4%
CN(CC(=O)Nc1ccccc1C(F)(F)F)C(=O)c1cc(-c2cccs2)nn1-c1ccccc1 | inconclusive: -4.8%
CC(C)OP(=O)(CCP(=O)(OC(C)C)OC(C)C)OC(C)C | inconclusive: -3.1%
CCc1nc(OCCN(C)C)c2oc3ccccc3c2n1 | inconclusive: -16.4%
COc1ccc(N(CC(=O)Nc2cc(C)on2)S(=O)(=O)c2cc(C)ccc2C)cc1 | inconclusive: -1.1%
COc1ccc(C2c3cc(OC)c(OC)cc3CCN2C(=O)c2ccccc2Br)cc1OC (stereo unspecified) | inconclusive: 5.6%
O=C(CC(c1ccco1)S(=O)(=O)c1ccccc1)c1ccccc1 (stereo unspecified) | inactive: 0.4%
O=C(Nc1ccccc1F)NC1CCCc2ccccc21 (stereo unspecified) | inconclusive: -25.7%
COc1ccccc1-c1cc(C(F)(F)F)nc(S(=O)(=O)CCCC(=O)N2CCOCC2)n1 | inconclusive: 14%
Cn1cnnc1SCC(=O)N1CCc2ccccc21 | inconclusive: 13.3%
COCCN(C(=O)COC(=O)c1ccc(C)o1)c1c(N)n(Cc2ccccc2)c(=O)[nH]c1=O | inconclusive: 5.2%
COc1ccc(NC(=O)CN(C)C(=O)c2cc(CN3C(=O)c4ccccc4C3=O)ccc2OC)cc1 | inconclusive: -2.3%
Cc1ccc(C(=O)Nc2ccc3c(c2)OCCO3)c(C)c1 | inconclusive: 24.4%
OCCNCc1c(OCc2ccc(Cl)cc2)ccc2ccccc12 | inconclusive: -22%
c1ccc2c(c1)OCC(c1nn3cnnc3s1)O2 (stereo unspecified) | inconclusive: 5.6%
S=C(Nc1ccc(Cl)c(Cl)c1)N1CCN(c2ccccn2)CC1 | inconclusive: 14.1%
O=Cc1c(NC2CCCCC2)c2ccccc2[nH]c1=O | inactive: -26.6%
